Data source: PubChem BioAssay AID1259308 (NCATS, 2017)
Shown is a random part of about 59,000 deposited reagents. In the full data, about 1,510 (2.6%) are marked active. 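Calls use total luciferase alone and ignore viability, so some active siRNAs may act by altering cell number.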 The numbers tell different reagents against one gene apart. Further read-outs or replicates are left out here.

- Aim: 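Candidate targets for better recombinant protein yield in mammalian cells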 (primary screen)
- Cell system: human HEK293 embryonic kidney cells stably expressing firefly luciferase (HEK-CMV-Luc2-Hygro)
- Knock-down reagent: single siRNA against human genes, 0.8 pmol siRNA per well
- Time to read-out: 72 h
- Measured: 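Reporter luminescence and viable-cell signal on separate replicate plates, given as percent of non-targeting control and median/MAD z-scores, plus per-cell luciferase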
- Direction: total luciferase, z-score and total luciferase, % of control: higher = more reporter protein produced
- Rule for the call: 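Active when the median/MAD z-score for overall luciferase is greater than 3; a gene was taken forward for validation with new siRNAs if at least two of its three siRNAs passed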
- Calls: active = raised luciferase; inactive = no rise

no.	gene symbol	siRNA no.	total luciferase, z-score	total luciferase, % of control	Call
1	TRUB2	1	-0.354	74.8	inactive
2	TRUB2	2	1.04	103	inactive
3	TRUB2	3	0.311	88.1	inactive
4	SPDYA	1	-1.61	49.8	inactive
5	SPDYA	2	0.149	84.9	inactive
6	SPDYA	3	0.0682	83.2	inactive
7	VIPAS39	1	-1.51	51.8	inactive
8	VIPAS39	2	-0.487	72.2	inactive
9	VIPAS39	3	1.41	110	inactive

3 entries from above, arranged by “total luciferase, z-score”, lowest first:
gene symbol	siRNA no.	total luciferase, z-score	total luciferase, % of control	Call
VIPAS39	1	-1.51	51.8	inactive
VIPAS39	2	-0.487	72.2	inactive
VIPAS39	3	1.41	110	inactive

Continued:
no.	gene symbol	siRNA no.	total luciferase, z-score	total luciferase, % of control	Call
10	RNASEH2A	1	-1.09	60.2	inactive
11	RNASEH2A	2	-0.464	72.7	inactive
12	RNASEH2A	3	-0.108	79.7	inactive
13	CDC25C	1	-2.21	37.9	inactive
14	CDC25C	2	-1.62	49.6	inactive
15	CDC25C	3	1.77	117	inactive
16	JPH1	1	-0.388	74.2	inactive
17	JPH1	2	1.51	112	inactive
18	JPH1	3	-0.0673	80.5	inactive
19	ROBO1	1	0.574	93.3	inactive
20	ROBO1	2	-0.51	71.7	inactive
21	ROBO1	3	0.276	87.4	inactive
22	HEXA	1	-0.433	73.3	inactive
23	HEXA	2	2.84	138	inactive
24	HEXA	3	-0.291	76.1	inactive
